Reference: article PMC8699646

Assays:
[1] = target: T1, RalGPS2 (Ral GEF with PH domain and SH3-binding motif 2) (human (endogenous in 5637 and HEK293)) (UniProt Q86X27); experiment: co-IP; HEK293 cells, endogenous proteins; serum-starved (0.5% FBS) 18 h, then stimulated with 10% FBS for 15 min (S) or left unstimulated (NS); IP with anti-RalGPS2, anti-LST1 or anti-Sec5 antibodies, western blot
T1 sequence: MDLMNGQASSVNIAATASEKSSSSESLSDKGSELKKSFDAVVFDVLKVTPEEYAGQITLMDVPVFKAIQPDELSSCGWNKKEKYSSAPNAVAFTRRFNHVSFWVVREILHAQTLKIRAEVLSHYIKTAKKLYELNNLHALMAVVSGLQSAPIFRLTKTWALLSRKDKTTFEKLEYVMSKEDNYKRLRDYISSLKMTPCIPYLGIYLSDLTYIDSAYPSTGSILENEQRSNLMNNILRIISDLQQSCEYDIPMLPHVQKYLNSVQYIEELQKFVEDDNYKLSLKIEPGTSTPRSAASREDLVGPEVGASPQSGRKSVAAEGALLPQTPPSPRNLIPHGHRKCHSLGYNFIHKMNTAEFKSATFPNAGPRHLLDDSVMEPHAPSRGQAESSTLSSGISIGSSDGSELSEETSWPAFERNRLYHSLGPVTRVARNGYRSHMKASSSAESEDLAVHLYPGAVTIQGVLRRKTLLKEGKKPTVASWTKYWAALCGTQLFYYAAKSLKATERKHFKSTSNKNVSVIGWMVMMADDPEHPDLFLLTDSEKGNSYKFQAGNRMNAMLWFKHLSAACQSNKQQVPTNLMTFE

[2] = target: T1, RalGPS2 (Ral GEF with PH domain and SH3-binding motif 2) (human (endogenous in 5637 and HEK293)); experiment: co-IP; 5637 cells, endogenous proteins; serum-starved (0.5% FBS) 18 h, then stimulated with 10% FBS for 15 min (S) or left unstimulated (NS); IP with anti-RalGPS2 antibodies, western blot

binding [1]: binds | binding [2]: binds
Substance: protein kinase B (Akt), total (human (endogenous in 5637 and HEK293))

No constants are given. Whether binding was seen depends on the method and setting. Binding seen in cells or lysates may run through a third protein. Binding calls can cover weak binding; strength is not graded here.
